Data as given in patent US11359184.

Columns and labels:
Assay in all cases: activity assay
[1] = target: T7 RNA polymerase wild type (UniProt P00573); conditions: in vitro transcription; activity lost at high temperature; Mg2+; purified recombinant protein; protein details: N-terminal His6
[2] = target: 007-T7 fusion (Thermotoga lacI-like DBD fused to T7 RNAP) (UniProt P00573); conditions: molecular beacon transcription assay; more active at high temperature than wild type; purified recombinant protein; protein details: His6, DBD fusion
[3] = target: 109-T7 fusion (Pyrococcus furiosus HTH DBD fused to T7 RNAP) (UniProt P00573); conditions: molecular beacon transcription assay; more active at high temperature than wild type; purified recombinant protein; protein details: His6, DBD fusion
[4] = target: T7 RNA polymerase variant SEQ ID NO:70 (UniProt P00573); conditions: improved thermostability at 50 C versus wild type; purified recombinant protein; protein details: N-terminal His6
[5] = target: SS07-T7 fusion (sso7d DBD fused to T7 RNAP) (UniProt P00573); conditions: molecular beacon transcription assay; more active at high temperature than wild type; purified recombinant protein; protein details: His6, sso7d fusion

Measured: activity on this sequence

TAATACGACTCACTATAG (double strand) [T7 promoter in linear DNA template]
active: [1] | [2] | [3] | [4] | [5]
